This passage reports CC50 results from paper PMC8982737, “Discovery of S-217622, a Noncovalent Oral SARS-CoV-2 3CL Protease Inhibitor Clinical Candidate for Treating COVID-19” (Journal of Medicinal Chemistry, 2022).

The nature of the data set: in vitro. The following applies: African green monkey.

Each structure is given as a SMILES string.

Consider `CCC(CC)COC(=O)[C@H](C)N[P@](=O)(OC[C@H]1O[C@@](C#N)(c2ccc3c(N)ncnn23)[C@H](O)[C@@H]1O)Oc1ccccc1` [Remdesivir, reference compound], for which the CC50 is > 100 µM.
